The list shows a part of the results.
The sequences below were run against T1, OsSMF1 (Oryza sativa, UniProt Q6ZLB0 1-436) (assay: protein-binding microarray (RPBM); PBS, 2% BSA, 51.3 ng/ul salmon testes DNA, 50 uM zinc acetate, 200 nM TF, 25 C, 1 h; high values mean tight binding). Details: protein: recombinant; tags: N-terminal polyhistidine and DsRed monomer fusion (pET32a); chain copies: 2; label: CyDye5-dUTP incorporated in the synthesized complementary strand; 3' TTTTT single-stranded linker to array surface; dsDNA, one strand shown.
T1 sequence: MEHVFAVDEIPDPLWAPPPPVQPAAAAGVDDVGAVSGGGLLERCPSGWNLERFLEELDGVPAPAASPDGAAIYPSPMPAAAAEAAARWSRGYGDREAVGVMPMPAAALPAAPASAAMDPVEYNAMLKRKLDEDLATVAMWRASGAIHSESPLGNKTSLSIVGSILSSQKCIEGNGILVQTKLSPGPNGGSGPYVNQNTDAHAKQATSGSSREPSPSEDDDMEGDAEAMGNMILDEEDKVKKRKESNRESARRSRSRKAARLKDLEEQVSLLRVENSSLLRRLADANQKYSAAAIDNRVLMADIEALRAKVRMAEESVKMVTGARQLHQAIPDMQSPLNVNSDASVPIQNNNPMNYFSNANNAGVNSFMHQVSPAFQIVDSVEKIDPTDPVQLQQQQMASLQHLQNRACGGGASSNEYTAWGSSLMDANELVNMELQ
Method in brief: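 In PBS with 2% BSA, salmon testes DNA and 50 µM zinc acetate, 200 nM protein was incubated on a custom Agilent array at 25 °C for 1 h and then washed off. The array had been made double-stranded by primer extension with Cy5-dUTP and blocked with 2% BSA. The proteins were transcription factors fused N-terminally to polyhistidine and DsRed, expressed in E. coli BL21-CodonPlus and purified on Ni–NTA. The binding signal is per-feature fluorescence intensity (arbitrary units) from an Axon 4000B scanner.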
For “AAATACACTAAACGCGACCAAAACGTGTCGATGTCTCGATCGGAGTCACCTAGTGCAG”, the binding signal was 4220 fluorescence intensity (a.u.). In the case of “GGGGCGGCCCGGCCCGTGTCCACGTAAGCAAACGCACGCTCGGAGTCACCTAGTGCAG”, the binding signal is reported as 24500 fluorescence intensity (a.u.). “CGGAGACCTGCGCGCTCGACCTCATCGACGCCACGTACGACGGAGTCACCTAGTGCAG” was tested, and the binding signal was 8340 fluorescence intensity (a.u.). With “GTCTGGAGAGCCAGAGGAGAGGAGTAGCGGACGCGGTGCCCGGAGTCACCTAGTGCAG” the binding signal was 26700 fluorescence intensity (a.u.). In the case of “CCAGCTCCACGTTGGATTAGATCTGGGTTGAAAATCTCGTCGGAGTCACCTAGTGCAG”, the binding signal is reported as 5270 fluorescence intensity (a.u.). In the case of “TTGTGATGTATCATACCATGCATTTCAAATATCAGTTCAACGGAGTCACCTAGTGCAG”, the binding signal is reported as 3710 fluorescence intensity (a.u.). In the case of “TCATCTCTCGGCTCTAGGTCATTAGCTAGCTAATGAACTCCGGAGTCACCTAGTGCAG”, the binding signal is reported as 3540 fluorescence intensity (a.u.). With “TCGGCTCCTTCCCCGTCGTCGTGGGCTCGTCGGTGGACATCGGAGTCACCTAGTGCAG” the binding signal was 3450 fluorescence intensity (a.u.). “TACTAATTGTGTCATCATTCGTATTTACTCCCTCCGTTTCCGGAGTCACCTAGTGCAG” was tested, and the binding signal was 6280 fluorescence intensity (a.u.). For “TCTTGCTAATTGGTATGCCACATACGACAAAACCCCTCTCCGGAGTCACCTAGTGCAG”, the binding signal was 5230 fluorescence intensity (a.u.). With “CAAGACGAAGCGAATTCGCATCAAAACTGGCCGATAATTACGGAGTCACCTAGTGCAG” the binding signal was 26000 fluorescence intensity (a.u.). With “CCCAGTCGTTGTAGTTGGTCTTGGTCAGCAGCGGGTAGTTCGGAGTCACCTAGTGCAG” the binding signal was 5220 fluorescence intensity (a.u.). In the case of “TGTCGGCGCAGATCAGAAGGATCTGACGCGTTTCGGTTTCCGGAGTCACCTAGTGCAG”, the binding signal is reported as 3520 fluorescence intensity (a.u.). With “TTAATAAAATAAACCAACCGATGTGTCATATCACGTACAACGGAGTCACCTAGTGCAG” the binding signal was 5130 fluorescence intensity (a.u.). “TAAAAGGAATGCGAACACGTGTGTTCGTGTACGTGGGGTGCGGAGTCACCTAGTGCAG” was tested, and the binding signal was 9210 fluorescence intensity (a.u.). For “GACTTGTCCGGCGGTGTACCTCAACACGTGGGCAGGTGTCCGGAGTCACCTAGTGCAG”, the binding signal was 7320 fluorescence intensity (a.u.). With “TCGCCATGTCCGAGCTCCGCGTGTCGAGAGCACGAGCCACCGGAGTCACCTAGTGCAG” the binding signal was 4110 fluorescence intensity (a.u.). With “GCTGTTCGCCACGTTCGCAGACTGGGCGGGACACGTGCCTCGGAGTCACCTAGTGCAG” the binding signal was 11500 fluorescence intensity (a.u.). With “CACCGCTTTTCGGACACGTAGGTCTGCGTGCGAAATATCCCGGAGTCACCTAGTGCAG” the binding signal was 3470 fluorescence intensity (a.u.). In the case of “ACTGCCATGGTTGCGGAGCAGGATGGTGACGTGGATCCCACGGAGTCACCTAGTGCAG”, the binding signal is reported as 17700 fluorescence intensity (a.u.). In the case of “GGCACTTACGTAAAGATGAGGGATAAAATGTCGACTTATTCGGAGTCACCTAGTGCAG”, the binding signal is reported as 3640 fluorescence intensity (a.u.). With “TTTCAATATGTTTATTTGTATCGTTATATGGTATAGGATCCGGAGTCACCTAGTGCAG” the binding signal was 13800 fluorescence intensity (a.u.). “AAGTCTGTCTTTACATACCTACATACGTGTATTTGTATGTCGGAGTCACCTAGTGCAG” was tested, and the binding signal was 3390 fluorescence intensity (a.u.). In the case of “GTGCGCGTGCCGTGCACGGCGCACGCCGCCGCAACCGTCGCGGAGTCACCTAGTGCAG”, the binding signal is reported as 3950 fluorescence intensity (a.u.). With “TTTGAAACCGATTTCAACCGACGTGGCGGCTGAGTCGGCGCGGAGTCACCTAGTGCAG” the binding signal was 13000 fluorescence intensity (a.u.). “GAAGTATATGACATATTATATAGATAGTGGTAGTACATGTCGGAGTCACCTAGTGCAG” was tested, and the binding signal was 3500 fluorescence intensity (a.u.). “TGTTGTCAAAATGTGCTTGTCTCCTTTTAGTTTTCAATGACGGAGTCACCTAGTGCAG” was tested, and the binding signal was 9590 fluorescence intensity (a.u.). “TATCGTTCAACTTCAACACCACGTTATTTGCACGCATCTACGGAGTCACCTAGTGCAG” was tested, and the binding signal was 3550 fluorescence intensity (a.u.). “AGGCCTGTGATGATGTGCACGCACTGCTTCTCAGACAGGGCGGAGTCACCTAGTGCAG” was tested, and the binding signal was 21500 fluorescence intensity (a.u.). For “GGTGATCAATGATCAAGTGCCAGCATGAATGGTTCGTACACGGAGTCACCTAGTGCAG”, the binding signal was 36200 fluorescence intensity (a.u.). “ATGGGGTTTATTTTGCAAAAGACAGCTGAGGTGGCACGCTCGGAGTCACCTAGTGCAG” was tested, and the binding signal was 12100 fluorescence intensity (a.u.). In the case of “ATCATCAACCGCGCGTCATGGTTGGTACAACATCGTTTGTCGGAGTCACCTAGTGCAG”, the binding signal is reported as 4180 fluorescence intensity (a.u.). “TAAACGGGCTTTTGCTGGCCAATTAGTGTGTCACGATATGCGGAGTCACCTAGTGCAG” was tested, and the binding signal was 3850 fluorescence intensity (a.u.). “AAGTTGTGTAAATTCGGTCATGTCAGACAAATGTCAGCCCCGGAGTCACCTAGTGCAG” was tested, and the binding signal was 3920 fluorescence intensity (a.u.). With “TAAGCCCATCTTCCACATCTTCATTTATTGAGGTGTGTTCCGGAGTCACCTAGTGCAG” the binding signal was 3620 fluorescence intensity (a.u.). For “TACATCATGCGTCGCTGCGTCACCATGCTCGTCTGCTGGCCGGAGTCACCTAGTGCAG”, the binding signal was 10200 fluorescence intensity (a.u.). For “TTGTGTTCCCCTTGCACGTCTGCATCGTTGGTGTGGCTTGCGGAGTCACCTAGTGCAG”, the binding signal was 3730 fluorescence intensity (a.u.). In the case of “TTCTGCTCCCAGCTGCCAGCTACGTTGCAACCCCACCACCCGGAGTCACCTAGTGCAG”, the binding signal is reported as 3370 fluorescence intensity (a.u.). For “CGATTCAAAGCCGAGCGGCGTCGCCACTCGCCACCACCTCCGGAGTCACCTAGTGCAG”, the binding signal was 6650 fluorescence intensity (a.u.). For “TACTACCATGACGCTGCACTGCATGTTCGGATGTATTTCCCGGAGTCACCTAGTGCAG”, the binding signal was 6280 fluorescence intensity (a.u.). For “AGTCTGGCTTGGCTCCCTCCCCTGTAGCTCATCCAGCAACCGGAGTCACCTAGTGCAG”, the binding signal was 3160 fluorescence intensity (a.u.). With “CAATTCCTTCTCCTCCCTCTACCGCCATATCAGCACACGTCGGAGTCACCTAGTGCAG” the binding signal was 4240 fluorescence intensity (a.u.).
